Two sequences from publication PMC9045296 (Microbiology Spectrum, 2022) can be followed below.

End groups of sequences in plain letters are not given here.

This data set is described as follows: general procedure: Fmoc solid-phase peptide synthesis; Wang resin 100–200 mesh; HCTU/DIEA. The conditions noted are these: whole synthesis, scale of the general procedure 0.05 to 0.1 mmol.

On to SGIAWGGIK, for which the crude yield was 97.54%, the “final purity (method not given)” value is recorded as 81.1% and the isolated yield is 66.3%.

For SESGIAWGG, the crude yield came out at 98.76%, the “final purity (method not given)” value was 70.5% and the isolated yield was 34.2%.
